Data on two sequences can be found in patent US20180087053.

Protein sequences, listed by entry. Tags and fused reporters are not part of them. Residues count along the entry.
UniProt P38646, 47-679: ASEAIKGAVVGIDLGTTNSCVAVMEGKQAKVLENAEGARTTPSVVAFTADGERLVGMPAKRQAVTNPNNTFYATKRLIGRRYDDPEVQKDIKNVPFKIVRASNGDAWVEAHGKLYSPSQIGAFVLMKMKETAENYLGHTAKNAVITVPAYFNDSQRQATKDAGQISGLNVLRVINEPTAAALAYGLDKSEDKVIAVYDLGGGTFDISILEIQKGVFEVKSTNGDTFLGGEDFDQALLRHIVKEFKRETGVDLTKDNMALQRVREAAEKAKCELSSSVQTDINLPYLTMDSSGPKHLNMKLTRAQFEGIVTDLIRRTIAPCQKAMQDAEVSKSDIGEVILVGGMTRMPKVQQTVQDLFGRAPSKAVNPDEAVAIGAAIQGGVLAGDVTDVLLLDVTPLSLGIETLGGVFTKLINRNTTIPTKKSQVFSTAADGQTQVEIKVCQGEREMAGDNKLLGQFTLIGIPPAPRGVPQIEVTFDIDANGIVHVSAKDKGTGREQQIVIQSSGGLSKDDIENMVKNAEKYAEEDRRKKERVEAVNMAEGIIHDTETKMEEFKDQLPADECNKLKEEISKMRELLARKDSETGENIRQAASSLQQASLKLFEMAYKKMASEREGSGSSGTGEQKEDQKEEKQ

The exact form of at least one protein or probe is not confirmed. Results from cells or extracts need not show a direct contact.

The target in the data set is mortalin (mitochondrial Hsp70) from PANC-1 membrane protein extract (Homo sapiens) (UniProt P38646). The experiment in a line: pull-down. To be noted: 2'-F pyrimidines; 3'-biotin aptamer; band about 75 kDa identified by Q-TOF MS; protein in an extract; protein details: endogenous; label: Cy3 (flow) or 3'-biotin (SPR, pulldown).

“GGGAGACAAGAAUAAACGCUCAAUGCGCUGAAUGCCCAGCCGUGAAAGCGUCGAUUUCCAUCCUUCGACAGGAGGCUCACAACAGGC [P1]”: the binding result was “binds”.
“GGGAGACAAGAAUAAACGCUCAAUGGCGAAUGCCCGCCUAAUAGGGCGUUAUGACUUGUUGAGUUCGACAGGAGGCUCACAACAGGC [P19]”: the binding result is “binds”.
